PubChem BioAssay AID1259308, NCATS | 2017
Purpose: 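Genes whose loss raises luciferase production in HEK293 cells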 (primary screen). Cells: human HEK293 embryonic kidney cells stably expressing firefly luciferase (HEK-CMV-Luc2-Hygro). Knock-down reagent: single siRNA against human genes, 0.8 pmol siRNA per well. Time to read-out: 72 h. Measurement: 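Reporter luminescence and viable-cell signal on separate replicate plates, given as percent of non-targeting control and median/MAD z-scores, plus per-cell luciferase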. Direction: total luciferase, z-score and total luciferase, % of control: higher = more reporter protein produced. Call rule: 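Active when the median/MAD z-score for overall luciferase is greater than 3; a gene was taken forward for validation with new siRNAs if at least two of its three siRNAs passed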. Calls: active = raised luciferase; inactive = no rise.
The deposit covers about 59,000 reagents; this is a part drawn at random. About 1,510 of all reagents (2.6%) count as active. 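Calls use total luciferase alone and ignore viability, so some active siRNAs may act by altering cell number.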 Reagents against one gene are numbered here. Further read-outs or replicates are left out here. No sequences are given here.

no.	gene symbol	siRNA no.	total luciferase, z-score	total luciferase, % of control	Outcome
1	RNF121 (GeneID 55298)	1	-1.15	59.1	inactive
2	RNF121 (GeneID 55298)	2	0.536	92.5	inactive
3	RNF121 (GeneID 55298)	3	-0.15	78.9	inactive
4	ENHO (GeneID 375704)	1	0.892	99.6	inactive
5	ENHO (GeneID 375704)	2	-3.09	20.4	inactive
6	ENHO (GeneID 375704)	3	-1.09	60.3	inactive
7	LOC646938 (GeneID 646938)	1	-0.215	77.6	inactive
8	LOC646938 (GeneID 646938)	2	1.37	109	inactive
9	LOC646938 (GeneID 646938)	3	1	102	inactive
10	LHX8 (GeneID 431707)	1	-0.362	74.7	inactive
11	LHX8 (GeneID 431707)	2	-0.848	65	inactive
12	LHX8 (GeneID 431707)	3	0.273	87.3	inactive
13	IER5L (GeneID 389792)	1	0.173	85.3	inactive
14	IER5L (GeneID 389792)	2	-0.439	73.2	inactive
15	IER5L (GeneID 389792)	3	-1.74	47.3	inactive

2 entries from above in another layout.
| gene symbol | siRNA no. | total luciferase, z-score | total luciferase, % of control | Outcome |
| --- | --- | --- | --- | --- |
| RNF121 (GeneID 55298) | 2 | 0.536 | 92.5 | inactive |
| RNF121 (GeneID 55298) | 3 | -0.15 | 78.9 | inactive |

The results go on.
no.	gene symbol	siRNA no.	total luciferase, z-score	total luciferase, % of control	Outcome
16	ZSCAN4 (GeneID 201516)	1	-0.97	62.6	inactive
17	ZSCAN4 (GeneID 201516)	2	0.363	89.1	inactive
18	ZSCAN4 (GeneID 201516)	3	3.54	152	active
19	LRRTM2 (GeneID 26045)	1	-0.0841	80.2	inactive
20	LRRTM2 (GeneID 26045)	2	-0.544	71.1	inactive
21	LRRTM2 (GeneID 26045)	3	-0.497	72	inactive
22	BRWD1 (GeneID 54014)	1	0.993	102	inactive
23	BRWD1 (GeneID 54014)	2	2.83	138	inactive
24	BRWD1 (GeneID 54014)	3	0.471	91.3	inactive
